Laboratory results: EP3086659B1, “NUTRITIONAL COMPOSITION FOR THE PREVENTION AND TREATMENT OF COPD AND RELATED SYMPTOMS” (Thompson S.r.L., priority 2013, dated 2015)
At least one structure is not confirmed: it was looked up by name or label, or the drawing left a doubt.

Key:
[1] = tested on: Human alveolar epithelial cells A549; assay: Determination of intracellular glutathione (GSH and GSSG), glutathione reductase-recycling analysis; type: cell-based; settings: 6 hours
Protocol: Curcumin (CUR), N-acetyl-L-cysteine (NAC) and glutathione in reduced (GSH) and oxidised (GSSG) form and other reagents were supplied by Sigma. Human alveolar epithelial cells A549 were purchased from American Type Culture Collection (ATCC CCL-185). Levels of reduced (GSH) and oxidised (GSSG) Glutathione were measured after exposure of the cells for 6 hours to curcumin, NAC and curcumin and NAC association (ratio 1/1) using the method already described in Calabrese et al. 1998; Motterlini et al. 2000a). Cells harvested in cold PBS were frozen-thawed three times and an aliquot of this suspension was added to a buffer solution containing […] of EDTA and 10 mM of 5,5-dithiobis- (2-nitrobenzoic acid). The total glutathione was measured by spectroscopy (optical density of 412 nm) using the glutathione reductase-recycling analysis. In order to determine the quantity of GSSG, an aliquot of the cell suspension was added to an equal volume of buffer containing EDTA and N-ethylmaleimide (10 mM). The sample was mixed and centrifuged and the supernatant was passed through a Sep-Pak C18 cartridge (Waters, Milford, MA) to remove the excess of N-ethylmaleimide. The sample was added to a container containing 5.5-dithiobis- (2-nitrobenzoic acid) and glutathione reductase and the analysis was carried out for the measurement of total glutathione. Intracellular glutathione was determined by comparison with a standard curve obtained with standard solutions of GSH and GSSG and was expressed as nmoles/mg protein. […] Each bar in Fig. 1 represents the average +/- of SEM of 4-5 experiments performed independently. *, p <0.05 versus 0 µM.

[2] = tested on: glutathione reductase (GRX); assay: Glutathione reductase (GRX) mRNA expression by quantitative real-time PCR compared to GAPDH; type: cell-based, Human; settings: 15 µM, 6 h
Description: (§1) Curcumin (CUR), N-acetyl-L-cysteine (NAC) and glutathione in reduced (GSH) and oxidised (GSSG) form and other reagents were supplied by Sigma. Human alveolar epithelial cells A549 were purchased from American Type Culture Collection (ATCC CCL-185). […] GRX is a key enzyme in the regulation of the cellular oxidative state, being responsible for the regeneration of GSH from GSSG and in the regeneration of dehydroascorbate.

Nrf2 [3] = assay: Expression of Nrf2 protein in nuclear extracts (Western blot); type: cell-based, Human; settings: 15 µM, after one hour up to 12h, three independent Western blots
Description: Curcumin (CUR), N-acetyl-L-cysteine (NAC) and glutathione in reduced (GSH) and oxidised (GSSG) form and other reagents were supplied by Sigma. Human alveolar epithelial cells A549 were purchased from American Type Culture Collection (ATCC CCL-185). […] The combination of NAC and CUR induced a slightly higher level of Nrf2 expression.

HO-1 = HO-1 mRNA expression by quantitative real-time PCR compared to GAPDH; type: cell-based, Human; settings: 15 µM, 6 h
Description: as §1

Nrf2 [4] = assay: Nrf2 mRNA expression by quantitative real-time PCR compared to GAPDH; type: cell-based, Human; settings: 15 µM, 6 h
Description: as §1

## COc1cc(/C=C/C(=O)CC(=O)/C=C/c2ccc(O)c(OC)c2)ccc1O [Curcumin, (1E, 6E)-1,7-bis-(4-hydroxy-3-methoxyphenyl)-epta-1,6-dien-3,5-dione]
[1]; 50 µM
  GSSG (oxidation): caused oxidation
  content of GSH: without affecting the content of GSH
[1]; 15 and 30 µM, versus 0 µM
  intracellular GSH: significant increase
  intracellular GSSG: significant increase
[2]
  glutathione reductase (GRX) mRNA: significant increase
Nrf2 [3]
  expression of the protein Nrf2 in the nucleic extracts: increased significantly
HO-1
  HO-1 mRNA: significant increase
Nrf2 [4]
  Nrf2 mRNA: significant increase
